TcHisRS: 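Histidine-tRNA ligase, Trypanosoma cruzi CL Brener (UniProt Q4DA54). Enzyme assay of histidyl-tRNA synthetase; the read-out is not stated. Tested at 30 µM. Higher reads as stronger inhibition (inferred: compounds with an IC50 in retests scored well above the rest). Size under these conditions: about 69,000 compounds, about 31 of them at 50% or above in at least one test.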
Pks13 thioesterase: 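Enzyme assay of the thioesterase domain of polyketide synthase 13; the read-out is not stated. Target: Polyketide synthase Pks13, Mycobacterium tuberculosis (UniProt I6X8D2). Tested at 30 µM. The record gives no direction; the compounds picked for IC50 retests had high values, so higher reads as stronger inhibition. Size under these conditions: about 67,000 compounds, about 300 of them at 50% or above in at least one test.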
CoaBC: 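Coenzyme A biosynthesis protein CoaBC, Mycobacterium tuberculosis (UniProt P9WNZ1). Enzyme assay of CoaBC with a phosphate dye (Biomol Green) read at 650 nm. Concentration: 30 µM. Higher reads as stronger inhibition, judged from the few compounds that gave an IC50. Most strong results did not repeat in a second test. Of about 67,000 compounds tested this way, about 40 (0.06%) reached 50% or more in at least one test.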
Leishmania in macrophages: 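Cell assay of Leishmania donovani living inside macrophages; the read-out is not stated. Concentration: 30 µM. The record gives no direction; compounds that gave an IC50 in retests scored well above the rest, so higher reads as stronger inhibition. Of about 69,000 compounds tested this way, about 1,000 (1.5%) reached 50% or more in at least one test.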
PfKRS1: 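Lysine-tRNA ligase, Plasmodium falciparum 3D7 (UniProt Q8IDJ8). Enzyme assay of the cytosolic lysyl-tRNA synthetase in 384-well plates, read by luminescence. Tested at 30 µM. Direction is inferred from only a few compounds that gave an IC50; most scored high, so higher reads as stronger inhibition. Of about 69,000 compounds tested this way, about 49 (0.071%) reached 50% or more in at least one test.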
MtTrpRS: 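Enzyme assay of tryptophanyl-tRNA synthetase; the read-out is not stated. Target: Tryptophan-tRNA ligase, Mycobacterium tuberculosis (UniProt P9WFT3). Tested at 10 µM. Higher most likely means stronger inhibition; the record gives no direction and few retests gave an IC50. Size under these conditions: about 65,000 compounds, about 64 of them at 50% or above in at least one test.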

Chains of the proteins cited; added tags and fusions are not shown. Residues count along the entry.
UniProt Q4DA54, 1-478: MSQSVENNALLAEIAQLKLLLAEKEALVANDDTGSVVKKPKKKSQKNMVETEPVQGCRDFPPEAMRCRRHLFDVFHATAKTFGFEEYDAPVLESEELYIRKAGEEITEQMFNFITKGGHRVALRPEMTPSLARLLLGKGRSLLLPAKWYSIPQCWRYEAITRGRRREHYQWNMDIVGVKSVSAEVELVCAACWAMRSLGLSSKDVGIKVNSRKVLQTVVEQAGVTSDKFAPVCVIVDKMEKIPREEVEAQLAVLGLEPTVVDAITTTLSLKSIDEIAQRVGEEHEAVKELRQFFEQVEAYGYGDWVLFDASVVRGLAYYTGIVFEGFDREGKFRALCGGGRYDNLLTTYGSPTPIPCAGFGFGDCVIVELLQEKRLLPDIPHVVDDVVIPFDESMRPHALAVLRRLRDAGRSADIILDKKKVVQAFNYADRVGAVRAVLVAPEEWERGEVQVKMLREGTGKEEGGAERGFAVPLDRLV
UniProt I6X8D2, whole entry: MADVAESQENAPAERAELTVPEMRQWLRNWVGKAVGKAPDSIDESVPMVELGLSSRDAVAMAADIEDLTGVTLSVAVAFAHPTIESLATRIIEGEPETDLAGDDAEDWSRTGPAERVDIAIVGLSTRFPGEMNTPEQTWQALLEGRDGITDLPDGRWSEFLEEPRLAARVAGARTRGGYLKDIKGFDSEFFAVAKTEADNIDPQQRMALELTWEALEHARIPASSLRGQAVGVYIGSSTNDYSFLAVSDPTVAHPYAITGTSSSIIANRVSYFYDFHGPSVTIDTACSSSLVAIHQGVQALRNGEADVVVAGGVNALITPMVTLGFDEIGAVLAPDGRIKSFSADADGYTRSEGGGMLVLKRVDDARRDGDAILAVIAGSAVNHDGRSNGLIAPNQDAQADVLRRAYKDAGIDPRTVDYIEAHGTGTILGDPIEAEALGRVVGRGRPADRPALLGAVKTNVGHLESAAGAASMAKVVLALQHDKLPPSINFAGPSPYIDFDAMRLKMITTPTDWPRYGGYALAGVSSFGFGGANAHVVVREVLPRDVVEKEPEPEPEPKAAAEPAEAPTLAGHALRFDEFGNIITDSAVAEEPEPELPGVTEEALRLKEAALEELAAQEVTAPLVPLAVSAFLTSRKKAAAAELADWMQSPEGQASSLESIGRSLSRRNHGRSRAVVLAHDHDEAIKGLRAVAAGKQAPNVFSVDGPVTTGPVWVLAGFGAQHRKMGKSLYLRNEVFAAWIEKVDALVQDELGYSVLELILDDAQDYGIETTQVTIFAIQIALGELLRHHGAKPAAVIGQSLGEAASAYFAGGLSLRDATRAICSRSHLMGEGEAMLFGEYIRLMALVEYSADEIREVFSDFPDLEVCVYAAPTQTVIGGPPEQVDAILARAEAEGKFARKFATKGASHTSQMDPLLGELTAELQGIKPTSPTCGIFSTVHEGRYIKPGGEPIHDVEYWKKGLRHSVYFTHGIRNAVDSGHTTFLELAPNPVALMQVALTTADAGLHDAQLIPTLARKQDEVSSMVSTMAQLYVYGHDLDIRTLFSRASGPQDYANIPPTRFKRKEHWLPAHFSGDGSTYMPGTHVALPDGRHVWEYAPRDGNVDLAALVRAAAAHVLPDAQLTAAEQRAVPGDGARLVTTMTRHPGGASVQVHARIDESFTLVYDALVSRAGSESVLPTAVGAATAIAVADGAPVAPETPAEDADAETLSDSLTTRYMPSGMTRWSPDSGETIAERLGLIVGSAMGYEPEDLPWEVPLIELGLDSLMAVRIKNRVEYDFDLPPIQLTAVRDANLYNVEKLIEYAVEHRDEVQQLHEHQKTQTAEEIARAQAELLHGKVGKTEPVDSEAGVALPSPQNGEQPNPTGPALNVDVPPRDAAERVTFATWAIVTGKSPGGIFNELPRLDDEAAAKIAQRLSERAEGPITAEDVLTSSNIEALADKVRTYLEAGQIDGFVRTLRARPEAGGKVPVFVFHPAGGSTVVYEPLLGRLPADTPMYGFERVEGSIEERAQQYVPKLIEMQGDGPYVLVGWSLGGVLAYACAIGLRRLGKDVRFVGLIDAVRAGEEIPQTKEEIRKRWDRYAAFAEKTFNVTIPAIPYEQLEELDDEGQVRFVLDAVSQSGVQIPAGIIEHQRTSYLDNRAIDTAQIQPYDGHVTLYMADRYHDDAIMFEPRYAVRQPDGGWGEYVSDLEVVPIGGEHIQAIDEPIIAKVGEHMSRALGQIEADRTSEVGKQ
UniProt P9WNZ1, whole entry: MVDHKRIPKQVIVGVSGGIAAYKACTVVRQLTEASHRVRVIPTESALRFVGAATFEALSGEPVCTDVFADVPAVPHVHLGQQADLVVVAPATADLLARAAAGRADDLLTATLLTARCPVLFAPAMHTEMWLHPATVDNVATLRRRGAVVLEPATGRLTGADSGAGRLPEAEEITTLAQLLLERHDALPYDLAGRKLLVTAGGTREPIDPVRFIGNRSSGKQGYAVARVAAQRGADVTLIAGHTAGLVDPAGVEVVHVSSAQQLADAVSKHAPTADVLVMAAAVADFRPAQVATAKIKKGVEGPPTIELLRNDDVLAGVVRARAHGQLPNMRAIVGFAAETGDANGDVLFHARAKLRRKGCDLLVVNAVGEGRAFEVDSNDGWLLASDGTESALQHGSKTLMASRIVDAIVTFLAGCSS
UniProt Q8IDJ8, 1-583: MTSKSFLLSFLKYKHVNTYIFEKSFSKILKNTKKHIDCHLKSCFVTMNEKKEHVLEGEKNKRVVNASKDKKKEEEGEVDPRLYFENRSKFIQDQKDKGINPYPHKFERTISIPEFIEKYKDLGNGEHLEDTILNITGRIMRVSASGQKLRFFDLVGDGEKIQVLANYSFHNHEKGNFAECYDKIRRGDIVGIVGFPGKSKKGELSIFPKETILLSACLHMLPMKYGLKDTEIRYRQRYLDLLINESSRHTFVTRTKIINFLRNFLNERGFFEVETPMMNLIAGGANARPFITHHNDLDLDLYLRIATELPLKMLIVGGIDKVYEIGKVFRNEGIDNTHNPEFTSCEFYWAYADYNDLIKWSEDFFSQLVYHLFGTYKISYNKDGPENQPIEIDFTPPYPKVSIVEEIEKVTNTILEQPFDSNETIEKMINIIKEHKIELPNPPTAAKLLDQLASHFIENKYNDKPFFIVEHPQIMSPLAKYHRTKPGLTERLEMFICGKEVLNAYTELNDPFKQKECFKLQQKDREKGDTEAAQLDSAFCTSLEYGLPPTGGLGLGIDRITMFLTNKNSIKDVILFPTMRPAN
UniProt P9WFT3, whole entry: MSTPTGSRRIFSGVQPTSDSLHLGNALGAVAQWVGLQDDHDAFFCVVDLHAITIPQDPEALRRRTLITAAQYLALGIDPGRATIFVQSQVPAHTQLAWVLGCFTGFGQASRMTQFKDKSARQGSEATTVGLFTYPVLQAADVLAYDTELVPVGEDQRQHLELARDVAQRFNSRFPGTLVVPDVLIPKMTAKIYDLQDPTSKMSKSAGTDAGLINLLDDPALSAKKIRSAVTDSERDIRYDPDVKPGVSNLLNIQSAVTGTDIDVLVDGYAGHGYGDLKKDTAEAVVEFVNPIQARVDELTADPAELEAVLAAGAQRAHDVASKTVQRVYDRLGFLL

Values are the deposited “Percent Effect”, in %. How 0% and 100% were set is not recorded. Most values in the screen are low, and negative values occur. Compounds were drawn at random from those tested, without regard to their results. A dash means the value is not listed here; it may have been measured.

With O=C1CC(c2ccncc2)c2c(c(C(=O)O)cn2-c2ccccc2)N1 (configuration not stated) the screen gave TcHisRS: 8.911%; Pks13 thioesterase: -4.944%; CoaBC: -0.8475%; Leishmania in macrophages: 26.85%; PfKRS1: 4.964%; MtTrpRS: 6.532%.
With [H][C@@]12CNC[C@]1([H])[C@H]2CN1CCn2nc(CNC(=O)N(C)C)cc2C1 the screen gave Leishmania in macrophages: 15.17%.
With Cc1nc(C)n(CCCNC(=O)C(C)n2ccnc2C(C)C)n1 (configuration not stated) the screen gave TcHisRS: 3.867%; Pks13 thioesterase: -27.1%; CoaBC: 11.9%; Leishmania in macrophages: -0.7591%; PfKRS1: -5.97%; MtTrpRS: -1.31%.
With COCCn1cncc1Cn1cccc(C(F)(F)F)c1=O the screen gave TcHisRS: 2.222%; Pks13 thioesterase: -15.92%; CoaBC: -10.08%; Leishmania in macrophages: -7.731%; PfKRS1: -3.779%; MtTrpRS: 13.89%.
With CSCC(=O)N1C[C@H]2CC[C@@H]1CN(Cc1ccccc1)C2 the screen gave TcHisRS: 6.612%; Pks13 thioesterase: -2.495%; CoaBC: -25.37%; PfKRS1: 1.936%; MtTrpRS: 0.07128%.
With O=C(O)C(F)(F)F.c1coc(CN2CCCn3c(nnc3Cn3cccn3)C2)c1 the screen gave Leishmania in macrophages: 38.62%.
With Cc1cccc(C2(C(=O)NCC(C)CN3CCCC3=O)CC2)c1 (configuration not stated) the screen gave TcHisRS: 1.587%; Pks13 thioesterase: -7.611%; CoaBC: -17.92%; Leishmania in macrophages: 19.55%; PfKRS1: 3.674%; MtTrpRS: -0.6938%.
With CCc1nc(C2CCCN(C(=O)CC3CCOCC3)C2)no1 (configuration not stated) the screen gave TcHisRS: 7.872%; Pks13 thioesterase: -11.1%; CoaBC: 4.178%; Leishmania in macrophages: 18.66%; PfKRS1: 0.3251%; MtTrpRS: -3.511%.
With O=C(NCc1cccnc1)NC1CCCN(c2ncccn2)C1 (configuration not stated) the screen gave TcHisRS: 3.333%; Pks13 thioesterase: 12.42%; CoaBC: 3.158%; Leishmania in macrophages: 3.158%; PfKRS1: -2.122%; MtTrpRS: 3.957%.
With CC(C)NC(=O)Nc1ccc(CS(C)(=O)=O)cc1 the screen gave TcHisRS: 1%; Pks13 thioesterase: -10.87%; CoaBC: 4.875%; Leishmania in macrophages: -5.587%; PfKRS1: -1.763%; MtTrpRS: 1.866%.
With Cc1ccccc1N1CCN(C(=O)CSc2ccncc2)CC1=O the screen gave TcHisRS: 7.143%; Pks13 thioesterase: -7.54%; CoaBC: 0.2451%; Leishmania in macrophages: 6.698%; PfKRS1: 2.978%; MtTrpRS: 0.1235%.
With Cc1nocc1C(=O)N1CCOC2(COCCN(CC3CC3)C2)C1 (configuration not stated) the screen gave TcHisRS: 7.263%; Pks13 thioesterase: -10.31%; CoaBC: 1.818%; Leishmania in macrophages: 1.275%; PfKRS1: 3.259%.
With O=C(NC1CC1)c1nc(COc2ccc3c(c2)OCO3)no1 the screen gave TcHisRS: -0.9901%; Pks13 thioesterase: -7.372%; CoaBC: -1.816%; Leishmania in macrophages: 38.58%; PfKRS1: -1.976%; MtTrpRS: -1.4%.
With CCC[C@@H]1CN(Cc2ccc(C(F)(F)F)nc2)C[C@H]1NS(C)(=O)=O the screen gave TcHisRS: 4.762%; Pks13 thioesterase: -5.136%; CoaBC: -2.826%; Leishmania in macrophages: -22.39%; PfKRS1: -0.4778%; MtTrpRS: -0.5747%.

For reference, 2 entries once more:

SMILES	TcHisRS	Pks13 thioesterase	CoaBC	Leishmania in macrophages	PfKRS1	MtTrpRS
O=C(O)C(F)(F)F.c1coc(CN2CCCn3c(nnc3Cn3cccn3)C2)c1	-	-	-	38.62	-	-
O=C(NC1CC1)c1nc(COc2ccc3c(c2)OCO3)no1	-0.9901	-7.372	-1.816	38.58	-1.976	-1.4

Measurements from “University of Dundee, Small-Polar-MMV Screening Library” (2021), ChEMBL document CHEMBL3988442.